# Measurements as given in US10563263B2, “Genetic polymorphisms associated with statin response and cardiovascular diseases, methods of detection and uses thereof” (CELERA CORPORATION, priority 2010, dated 2020).
# This continues a long series; more values of the same kind are listed elsewhere.
# Tested on: CVD (CHD or stroke)
# Assay: CARE: SNP by pravastatin treatment interaction, logistic regression (synergy index), CVD endpoint
# Format: in vivo, human
# Description: CARE was a secondary prevention trial and WOSCOPS was a primary prevention trial.
# The CHD endpoint was defined in the analyses herein of CARE as a composite endpoint of fatal CHD, definite non-fatal MI, or revascularization, and was defined in the analyses herein of WOSCOPS as a composite endpoint of death from CHD, nonfatal MI, or revascularization. In both the CARE and WOSCOPS analyses herein, the CVD endpoint was defined as a composite endpoint of CHD or stroke. […] Revascularization, which can include percutaneous transluminal coronary angioplasty (PTCA), stent placement, and coronary artery bypass graft (CABG), are medical interventions that indicate the presence of CHD.
# Cohort and case-only study designs were used to identify SNPs associated with response to statin treatment.
# For each SNP, a logistic regression model having treatment status as the dependent variable and SNP as the independent predictor variable was performed, with terms for age, sex and race included in the model as covariates. The anti-log of the regression coefficient corresponding to the SNP is an estimate of the synergy index (SI) (Davis et al., “Imputing gene-treatment interactions when the genotype distribution is unknown using case-only and putative placebo analyses-a new method for the Genetics of Hypertension Associated Treatment (GenHAT) study”, Statistics in Medicine 23: (2004), pages 2413-2427). The SI is a ratio of odds ratios: for example in the CARE and WOSCOPS studies, the SI represents the factor by which the odds-ratio of statin treatment, compared with placebo, among major homozygous individuals is multiplied by in order to obtain the odds-ratio of treatment vs. placebo among heterozygous individuals; and multiplied by a second time to obtain the odds-ratio of treatment vs. placebo in minor homozygous individuals. […] In a randomized clinical trial, genotype and treatment are independent by design.
smiles,measurement,setting,value
"CC[C@H](C)C(=O)O[C@H]1C[C@H](O)C=C2C=C[C@H](C)[C@H](CC[C@@H](O)C[C@@H](O)CC(=O)O)[C@H]21 [Pravastatin, pravastatin]",OR,"rs1868616 allele G, ADD model, Imputed",0.572
same,OR,"rs1874313 allele A, DOM model, Imputed",0.578
same,OR,"rs1884902 allele C, REC model, Imputed",2.217
same,OR,"rs1913201 allele G, ADD model, Imputed",0.692
same,OR,"rs1913201 allele G, DOM model, Imputed",0.589
same,OR,"rs1944279 allele A, ADD model, Imputed",1.579
same,OR,"rs1987179 allele T, DOM model, Imputed",0.701
same,OR,"rs1990023 allele T, DOM model, Imputed",0.548
same,OR,"rs2016194 allele G, DOM model, Imputed",0.56
same,OR,"rs2024789 allele C, ADD model, Imputed",0.675
same,OR,"rs2024902 allele A, ADD model, Imputed",2.07
same,OR,"rs2024902 allele A, DOM model, Imputed",2.266
same,OR,"rs2025107 allele A, ADD model, Imputed",2.008
same,OR,"rs2025107 allele A, DOM model, Imputed",2.219
same,OR,"rs2025108 allele T, ADD model, Imputed",2.008
same,OR,"rs2025108 allele T, DOM model, Imputed",2.219
same,OR,"rs2062448 allele T, ADD model, Imputed",0.545
same,OR,"rs2062448 allele T, DOM model, Imputed",0.517
same,OR,"rs2063591 allele C, ADD model, Imputed",0.73
same,OR,"rs2063591 allele C, DOM model, Imputed",0.56
same,OR,"rs2065604 allele C, DOM model, Imputed",0.529
same,OR,"rs2066238 allele T, DOM model, Imputed",0.521
same,OR,"rs2068051 allele G, ADD model, Imputed",0.612
same,OR,"rs2095586 allele A, DOM model, Imputed",1.786
same,OR,"rs2108426 allele C, DOM model, Imputed",0.56
same,OR,"rs2110664 allele A, DOM model, Imputed",1.503
same,OR,"rs2132242 allele A, DOM model, Imputed",0.585
same,OR,"rs2151644 allele T, DOM model, Imputed",0.527
same,OR,"rs2158958 allele A, DOM model, Imputed",0.56
same,OR,"rs2158961 allele G, DOM model, Imputed",0.564
same,OR,"rs2164099 allele G, ADD model, Imputed",1.561
same,OR,"rs2173254 allele G, REC model, Imputed",0.382
same,OR,"rs2188079 allele C, ADD model, Imputed",1.482
same,OR,"rs2190304 allele G, REC model, Imputed",0.439
same,OR,"rs2190597 allele T, DOM model, Imputed",0.559
same,OR,"rs2190598 allele T, DOM model, Imputed",0.56
same,OR,"rs2190600 allele A, DOM model, Imputed",0.561
same,OR,"rs2218084 allele T, REC model, Imputed",3.657
same,OR,"rs2243860 allele A, REC model, Imputed",2.168
same,OR,"rs2246564 allele T, DOM model, Imputed",0.529
same,OR,"rs2248236 allele C, DOM model, Imputed",0.718
same,OR,"rs2250340 allele T, DOM model, Imputed",0.514
same,OR,"rs2257192 allele G, DOM model, Imputed",0.529
same,OR,"rs2270584 allele A, DOM model, Imputed",0.567
same,OR,"rs2270586 allele A, DOM model, Imputed",0.564
same,OR,"rs2270589 allele A, ADD model, Imputed",0.711
same,OR,"rs2270589 allele A, DOM model, Imputed",0.552
same,OR,"rs2296889 allele C, DOM model, Imputed",1.638
same,OR,"rs2301346 allele C, ADD model, Imputed",1.573
same,OR,"rs2301346 allele C, DOM model, Imputed",1.763
same,OR,"rs2327929 allele G, REC model, Imputed",2.122
same,OR,"rs2357486 allele C, REC model, Imputed",2.717
same,OR,"rs2373793 allele G, DOM model, Imputed",1.534
same,OR,"rs2377622 allele T, REC model, Imputed",0.437
same,OR,"rs2383903 allele G, DOM model, Imputed",0.614
same,OR,"rs2389866 allele C, DOM model, Imputed",0.697
same,OR,"rs2389869 allele C, DOM model, Imputed",0.697
same,OR,"rs2418541 allele A, DOM model, Imputed",0.551
same,OR,"rs2418542 allele A, DOM model, Imputed",0.551
same,OR,"rs2418548 allele C, DOM model, Imputed",0.572
same,OR,"rs2476976 allele C, DOM model, Imputed",1.728
same,OR,"rs2483639 allele A, DOM model, Imputed",0.529
same,OR,"rs2483640 allele A, DOM model, Imputed",0.529
same,OR,"rs2544780 allele T, REC model, Imputed",1.881
same,OR,"rs2586458 allele T, DOM model, Imputed",0.507
same,OR,"rs2593272 allele G, ADD model, Imputed",0.712
same,OR,"rs2593273 allele T, ADD model, Imputed",0.699
same,OR,"rs2622499 allele G, DOM model, Imputed",0.726
same,OR,"rs2656822 allele T, ADD model, Imputed",0.712
same,OR,"rs2656823 allele G, ADD model, Imputed",0.712
same,OR,"rs2656825 allele T, ADD model, Imputed",0.702
same,OR,"rs2764766 allele C, REC model, Imputed",1.803
same,OR,"rs2793101 allele T, ADD model, Imputed",0.506
same,OR,"rs2793101 allele T, DOM model, Imputed",0.501
same,OR,"rs2795871 allele A, ADD model, Imputed",0.578
same,OR,"rs2795886 allele A, ADD model, Imputed",0.507
same,OR,"rs2795886 allele A, DOM model, Imputed",0.517
same,OR,"rs2870464 allele G, DOM model, Imputed",1.534
same,OR,"rs2875528 allele T, DOM model, Imputed",1.705
same,OR,"rs4324417 allele A1=T, model DOM, Imputed, pravastatin vs placebo",1.724
same,OR,"rs4328619 allele A1=G, model DOM, Genotyped, pravastatin vs placebo",0.6851
same,OR,"rs4338909 allele A1=T, model ADD, Imputed, pravastatin vs placebo",1.366
same,OR,"rs4370878 allele A1=G, model DOM, Imputed, pravastatin vs placebo",1.625
same,OR,"rs4379434 allele A1=T, model DOM, Genotyped, pravastatin vs placebo",1.624
same,OR,"rs4416407 allele A1=T, model DOM, Imputed, pravastatin vs placebo",1.831
same,OR,"rs4417899 allele A1=C, model REC, Imputed, pravastatin vs placebo",0.544
same,OR,"rs4442732 allele A1=A, model ADD, Imputed, pravastatin vs placebo",0.6071
same,OR,"rs4444612 allele A1=G, model ADD, Imputed, pravastatin vs placebo",1.36
same,OR,"rs4444612 allele A1=G, model REC, Imputed, pravastatin vs placebo",1.891
same,OR,"rs4450660 allele A1=C, model DOM, Imputed, pravastatin vs placebo",1.503
same,OR,"rs4509702 allele A1=C, model DOM, Imputed, pravastatin vs placebo",1.625
same,OR,"rs4533145 allele A1=T, model DOM, Imputed, pravastatin vs placebo",0.4949
same,OR,"rs4557006 allele A1=A, model DOM, Imputed, pravastatin vs placebo",0.6286
same,OR,"rs4570530 allele A1=C, model DOM, Imputed, pravastatin vs placebo",1.625
same,OR,"rs4615971 allele A1=C, model DOM, Imputed, pravastatin vs placebo",1.614
same,OR,"rs4628119 allele A1=A, model DOM, Imputed, pravastatin vs placebo",0.6745
same,OR,"rs4664443 allele A1=G, model ADD, Imputed, pravastatin vs placebo",0.7174
same,OR,"rs4688259 allele A1=T, model DOM, Imputed, pravastatin vs placebo",1.832
same,OR,"rs4688632 allele A1=G, model REC, Imputed, pravastatin vs placebo",0.5583
same,OR,"rs4695284 allele A1=A, model ADD, Imputed, pravastatin vs placebo",2.105
same,OR,"rs4700302 allele A1=A, model ADD, Imputed, pravastatin vs placebo",0.5167
same,OR,"rs4702720 allele A1=A, model ADD, Imputed, pravastatin vs placebo",0.6094
same,OR,"rs4702720 allele A1=A, model DOM, Imputed, pravastatin vs placebo",0.5402
